These are yes or no findings as the source states them, for the method shown. In cells and extracts the contact can be indirect. Some binding calls cover weakened binding; strength is not graded here.
Tests used:
[1] = target: T1, PKK (protein kinase C-associated kinase), mouse, wild type (mouse) (UniProt Q9ERK0); experiment: co-immunoprecipitation (legend of FIG. 22)
T1 sequence: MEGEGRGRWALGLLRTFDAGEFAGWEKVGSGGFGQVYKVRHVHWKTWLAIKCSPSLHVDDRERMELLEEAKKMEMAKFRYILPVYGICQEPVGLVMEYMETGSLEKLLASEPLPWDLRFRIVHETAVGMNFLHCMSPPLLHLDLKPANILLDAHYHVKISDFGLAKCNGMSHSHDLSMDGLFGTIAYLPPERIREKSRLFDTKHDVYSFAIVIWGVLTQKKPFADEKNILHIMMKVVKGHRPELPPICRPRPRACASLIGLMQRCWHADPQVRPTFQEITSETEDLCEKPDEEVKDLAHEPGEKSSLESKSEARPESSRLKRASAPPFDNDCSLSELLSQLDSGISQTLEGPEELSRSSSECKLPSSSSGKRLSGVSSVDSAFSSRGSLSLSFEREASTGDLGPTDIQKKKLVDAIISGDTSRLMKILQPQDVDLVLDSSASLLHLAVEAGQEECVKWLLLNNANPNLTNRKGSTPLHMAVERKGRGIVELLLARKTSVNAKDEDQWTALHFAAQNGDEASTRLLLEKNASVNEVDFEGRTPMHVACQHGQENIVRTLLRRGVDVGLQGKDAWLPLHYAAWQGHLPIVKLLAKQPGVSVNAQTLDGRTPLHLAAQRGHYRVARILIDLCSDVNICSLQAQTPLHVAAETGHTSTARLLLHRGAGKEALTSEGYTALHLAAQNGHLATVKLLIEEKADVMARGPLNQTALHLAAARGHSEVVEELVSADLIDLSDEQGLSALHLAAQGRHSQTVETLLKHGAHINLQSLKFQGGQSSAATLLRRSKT

By UniProt entry, the sequences of proteins in these tests, tags left out. Where a name states a change or a piece, a line headed by the entry shows the natural chain unless it says otherwise.
UniProt Q8NFD2: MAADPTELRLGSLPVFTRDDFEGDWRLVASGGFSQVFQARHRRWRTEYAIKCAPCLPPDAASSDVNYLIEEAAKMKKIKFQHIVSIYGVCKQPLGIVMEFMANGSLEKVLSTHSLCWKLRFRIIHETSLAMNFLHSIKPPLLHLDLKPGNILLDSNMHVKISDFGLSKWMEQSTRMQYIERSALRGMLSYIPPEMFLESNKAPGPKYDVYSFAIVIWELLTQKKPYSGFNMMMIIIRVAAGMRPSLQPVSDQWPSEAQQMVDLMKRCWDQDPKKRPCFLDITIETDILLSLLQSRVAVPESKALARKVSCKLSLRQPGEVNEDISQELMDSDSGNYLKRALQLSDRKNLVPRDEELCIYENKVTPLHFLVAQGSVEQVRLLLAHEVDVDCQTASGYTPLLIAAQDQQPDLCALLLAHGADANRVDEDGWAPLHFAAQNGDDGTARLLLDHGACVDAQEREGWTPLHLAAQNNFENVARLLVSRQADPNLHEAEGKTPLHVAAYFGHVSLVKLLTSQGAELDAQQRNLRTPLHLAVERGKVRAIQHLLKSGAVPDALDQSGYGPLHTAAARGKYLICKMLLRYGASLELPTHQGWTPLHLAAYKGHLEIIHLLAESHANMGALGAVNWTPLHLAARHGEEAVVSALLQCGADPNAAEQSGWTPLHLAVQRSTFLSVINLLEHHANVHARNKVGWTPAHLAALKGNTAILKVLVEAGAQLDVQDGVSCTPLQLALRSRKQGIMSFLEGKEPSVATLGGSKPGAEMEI

[2] = target: T1, PKK (protein kinase C-associated kinase), mouse, wild type (mouse); experiment: co-immunoprecipitation (summary sentence about the filing's own experiments)
[3] = target: T1, PKK (protein kinase C-associated kinase), mouse, wild type (mouse); experiment: co-immunoprecipitation from transfected HEK293T cells (IP anti-Myc, blot anti-Flag)

binding [1]: binds | binding [2]: binds | binding [3]: binds
Substance: RICK3 (human RICK3, wild type) (from UniProt Q8NFD2 1-765) (enzyme)
